Test results taken from patent US4851426A, “Ethoxycarbonyloxy ethyl esters of non-steroidal anti-inflammatory carboxylic acids and pharmaceutical compositions thereof” (Teva Pharmaceutical Industries, Ltd., priority 1982, dated 1989).

Assay: Ulcerogenicity
Details: rat, in vivo, dose causing UI50, female rats, oral, read-out: UD50
Experimental: Methods: Six groups of 10 female Charles River rats weighing 170-230 g were used for each drug. […] Drugs were freshly suspended in water with 1% carboxymethyl cellulose and administered by stomach tube. Rats treated were sacrificed 5 hours after oral gavage. Ulcers were evaluated under a magnifying lens, after the stomach had been dissected out, opened along the lesser curvature and rinsed.
Ulcer index (UI) for each group was calculated as the mean sum of the lengths of the individual lesions in each rat.
Apparent maximal ulcerogenicity was calculated from regression analysis of the ascending parts of each dose-response curve.

COc1ccc2cc([C@H](C)C(=O)O)ccc2c1 [Naproxen, reference compound]
TD50 at 5 h: 170 µmol/kg
